Results as given in US9861601B2 (The Board of Trustees of the Leland Stanford Junior …, priority 2012, dated 2018).
Entries after “also recorded” stand apart in the source; their conditions may differ. For at least one compound, name, drawing or mass did not settle the structure.

System: athymic rat model of PAH
Experiment: SU5416 athymic nude rat model of PAH (PH)
Type: in vivo
Conditions: treatment started 21 days (3 wk) after SU5416, doses as in b355, assessed at wk 5
Procedure: In the model, PH was first initiated by a single injection of a VEGFR2 inhibitor, SU5416, and monitored by weekly echocardiography. Survival of the animals was recorded on daily basis. […] After 5 weeks (day 35), animals were sacrificed after right heart catheterization. […] Oral availability of ubenimex was determined by pharmacokinetic analysis.
The athymic nude rat model is an accepted model of severe PAH associated with immune dysregulation. Athymic nude rats (rnu/rnu) (Charles River Laboratories) were used for these studies. Six to eight week old animals were injected subcutaneously (s.c.) with a single dose of either SU5416 (SU) (10 mg/kg) dissolved in DMSO or DMSO (vehicle) alone. All animals were maintained in normoxic conditions. PH progression was monitored by weekly echocardiography (ECHO). Survival of rats was monitored out to wk 5 when they underwent a terminal right heart catheterization. PH was confirmed by ECHO. Hemodynamic measurements included right ventricular systolic pressure (RVSP) determined by right heart catheterization and right ventricular hypertrophy (RVH) determined by the weight ratio of RV/(LV+S) (right ventricle/(left ventricle+septum)).
All animals were sacrificed 5 wk after SU administration for hemodynamic measurements. […] Serial improvement was observed from the time of treatment initiation. […]

Structure (SMILES) | reversal of established PH / PH-related death
CC(C)(O)c1ccccc1CC[C@@H](SCC1(CC(=O)O)CC1)c1cccc(/C=C/c2ccc3ccc(Cl)cc3n2)c1 [Montelukast] | had little impact
CCc1cc(-c2ccc(F)cc2)c(O)cc1OCCCOc1cccc(Oc2ccccc2C(=O)O)c1CC [LY293111, 2-[2-propyl-[3-[2-ethyl-4-(4-fluorophenyl)-5-hydroxyphenoxy]-propoxy]phenoxy]benzoic acid] | efficacious in reversing severe PH and preventing PH-related death; also recorded: reverses established PH
